In PubChem BioAssay AID493014 (National Center for Advancing Translational Sciences (NCATS), 2011):
The whole screen tested about 340,000 compounds, of which about 170 (0.05%) were called active. Inconclusive means that the source gave no clear call. Such entries were picked first, then a sample of the others. Calls come from the whole dose curve; as a rule, active = well fitted inhibition curve with a large enough effect in the signal ratio, with a control signal flat (not every such curve was filed as active); inconclusive = small, poorly fitted or top-dose-only effect, or effect the other way, or a change in a side signal; inactive = flat fitted curve, though single readings scatter; the % refers to the signal ratio. Potencies beside an inconclusive call are fits to weak or partial responses and may not hold up.

Test: qHTS Assay to Find Inhibitors of Chronic Active B-Cell Receptor Signaling;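 for activity change, negative = inhibition: plate controls were basal doxycycline-induced cells for no effect and cells given 10 µM MG132 for full effect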
Conditions: ABC-DLBCL IkBa-CBG/CBR reporter, luminescence ratio (green luciferase fused to IkBa over red control in TMD8 lymphoma cells), 4 h; activity change, negative = inhibition: at 46.1 µM (top of the series) unless noted
Procedure, shortened: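 Cell line TMD8 (human ABC DLBCL), stably expressing tet-inducible CBG68-IkBa fusion and CBR; IMDM/0.5% FBS; cpd up to 46 uM; dox induction, 4 h, 37C/5% CO2; dual luminescence; green/red ratio; MG132 control.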
Potency is the fitted concentration of half-maximal effect.

| Structure (SMILES) | activity change, negative = inhibition | Potency |
| --- | --- | --- |
| CCOc1ccc(N2CC(NS(=O)(=O)c3cccnc3)CC2=O)cc1 (centres undefined) | inconclusive: 7.26% |  |
| Cc1ccc(NC(=O)c2cncc(Br)c2)c(O)c1 |  | inconclusive: 17.8 µM [falling, single point] |
| Cc1ccccc1NC(=O)CN(C)S(=O)(=O)c1cccs1 |  | inconclusive: 3.55 µM [falling, partial curve, poor fit] |
| C[C@H](CO)N1C[C@H](C)[C@@H](CN(C)S(=O)(=O)c2cn(C)cn2)Oc2ccc(NC(=O)NC3CCCCC3)cc2C1=O | inactive: 1.59% |  |
| O=C(C1=C[C@@H](C2CCCCC2)C[C@@H](OCc2ccc(CO)cc2)O1)N1CCN(Cc2ccccc2)CC1 | inactive: -15.5% |  |
| Cc1ccc(OCCCCN(C)Cc2ccccc2)c(Br)c1 | inconclusive: 0.155% |  |
| CNCCCCOc1ccccc1Cc1ccccc1 | inconclusive: -25.4% |  |
| c1ccc(-c2cc3c(-n4cccc4)ncnc3o2)cc1 |  | inconclusive: 11.2 µM [falling, partial curve] |
| Cc1ccc(CNC(=O)c2cc(-c3ccc(C)cc3)nc3n[nH]c(-c4ccc(F)cc4)c23)cc1 |  | inconclusive: 35.5 µM [falling, single point] |
| Cc1csc2ncnc(N3CCN(C(=S)Nc4ccc(C(F)(F)F)cc4)CC3)c12 | inconclusive: -3.41% |  |
| NC(=S)c1cnn2c(-c3cccc(C(F)(F)F)c3)ccnc12 | inconclusive: 10% |  |
| O=C(O)c1cccc(Nc2cc(Cl)c3nonc3c2[N+](=O)[O-])c1 | inactive: 0.166% |  |
| CC(=O)c1c(COC(=O)c2cccc(C)c2)nc2ccccc2[n+]1[O-] | inactive: 1.96% |  |
| c1ccc2cc(CCO[C@H]3CCCCO3)ncc2c1 | inconclusive: -9.28% |  |
| NNC(=O)/C(=C\c1ccco1)NC(=O)c1ccco1 |  | inconclusive: 1.78 µM [falling, full curve, poor fit] |
| CC(=O)Nc1cccc(NC(=O)CSc2nnnn2-c2ccc3c(c2)OCO3)c1 | inconclusive: -18.7% |  |
| COC(=O)c1c(C)oc2ccc(N(C(=O)c3ccncc3)S(=O)(=O)c3ccc4ccccc4c3)cc12 |  | inconclusive: 29.1 µM [falling, single point] |
| CCn1c2ccccc2c2cc(NC(=O)CNCC3CCCO3)ccc21 (centres undefined) | inconclusive: -6.31% |  |
| CCCCOC(=O)c1ccc(O)cc1 | inconclusive: 8.02% |  |
| CNC(=O)COC(=O)c1cccc(S(=O)(=O)N2CCN(c3ccc(F)cc3)CC2)c1 | inconclusive: 1.19% |  |
| COc1ccc(N(CC(=O)Nc2ccccc2OC)S(=O)(=O)c2ccccc2)cc1Cl |  | inconclusive: 12.6 µM [falling, partial curve, poor fit] |
| CCOCCCNC(=O)Cn1cnc2sc(C)c(S(=O)(=O)N3CCN(c4ncccn4)CC3)c2c1=O | inactive: -3% |  |
| CCOc1ccccc1C(=O)OCC(=O)NCCNC(=O)COC(=O)c1ccccc1OCC |  | inconclusive: 31.6 µM [falling, single point] |
| Cn1nc(C(=O)NC2CCCC2)c2ccccc2c1=O | inconclusive: 8.28% |  |
| CCOc1ccccc1N(CC(=O)NC1CCCC1)C(=O)CNC(=O)c1cccs1 |  | inconclusive: 15.8 µM [falling, partial curve] |
| CC(C)OC(=O)CCc1nc2ccccc2[nH]c1=O | inconclusive: 8.73% |  |
| O=C(COC(=O)c1ccc(F)cc1Cl)Nc1cccc(S(=O)(=O)N2CCOCC2)c1 |  | inconclusive: 20.6 µM [falling, single point] |

Some of the entries above in a different format.
Structure (SMILES),"activity change, negative = inhibition",Potency
CCCCOC(=O)c1ccc(O)cc1,inconclusive: 8.02%,
CCOCCCNC(=O)Cn1cnc2sc(C)c(S(=O)(=O)N3CCN(c4ncccn4)CC3)c2c1=O,inactive: -3%,

Remaining list, next part

| Structure (SMILES) | activity change, negative = inhibition | Potency |
| --- | --- | --- |
| Cc1ccc(-c2csc3ncnc(SCC(=O)c4ccc5c(c4)OCCO5)c23)cc1 | inactive: 10.9% |  |
| CC1CCC(C(C)C)C(OC(=O)Cn2c(-c3ccc(Cl)cc3)[n+](C)c3ccccc32)C1 (centres undefined) | inconclusive: 3.02% |  |
| Cc1ccc(C(=O)OCC(=O)Nc2cc(S(C)(=O)=O)ccc2Cl)cc1S(=O)(=O)N1CCCCC1 |  | inconclusive: 35.5 µM [falling, single point] |
| Cc1ccc(C(C)C)c(OCCN)c1 | inconclusive: -15.3% |  |
| CC1=C(C(=O)OCc2ccccc2)C(c2cccs2)N2C(=O)CCSC2=N1 (centres undefined) | inconclusive: 12% |  |
| CCOC(=O)C1CCN(C(=O)CN(c2ccc(OC)cc2)S(=O)(=O)c2c(C)nn(C)c2C)CC1 | inconclusive: -8% |  |
| O=C(NCCOc1ccccc1)c1ccccc1 |  | inconclusive: 0.291 µM [rising, full curve, poor fit] |
| CCOC(=O)C(CC)/C(C)=N/NC(=O)c1ccccc1[N+](=O)[O-] (centres undefined) |  | inconclusive: 7.94 µM [falling, partial curve] |
| O=C(CSc1ccc(-c2ccc(F)cc2)nn1)NCCc1ccccc1 | inactive: 3.56% |  |
| O=c1[nH]c2ccccc2cc1CN(CC1CCCO1)S(=O)(=O)c1ccc(Cl)cc1 (centres undefined) |  | inconclusive: 12.6 µM [falling, partial curve, poor fit] |
| O=C(O)c1ccc(COc2ccccc2Cl)cc1 |  | inconclusive: 20 µM [falling, partial curve, poor fit] |
| O=Nc1c(O)n(Cc2cccc(Cl)c2)c2ccccc12 |  | inconclusive: 7.08 µM [falling, partial curve, poor fit] |
| C#CCOCCOCCOCCNc1nc(N2CCN(C(=O)[C@H]([C@@H](C)CC)n3cc([C@@H](N)CC(C)C)nn3)CC2)nc(N2CCN(C(=O)[C@H](Cc3ccc(O)cc3)n3cc([C@@H](N)C(C)CC)nn3)CC2)n1 (some centres undefined) | inactive: 3.35% |  |
| CC(C)c1ccc(OCC(O)CN2CCN(c3ccccn3)CC2)cc1 (centres undefined) | inconclusive: 3.65% |  |
| COC(=O)c1ccc(C(=O)OC)c(NC(=O)COC(=O)C2CC2C)c1 (centres undefined) | inconclusive: 12.9% |  |
| COc1ccccc1-c1coc2c(CN3C(C)CCCC3C)c(O)ccc2c1=O (centres undefined) | inactive: -0.955% |  |
| CC(=O)c1ccc(NC(=O)CSc2nnc(NC(=O)Nc3ccccc3)s2)cc1 | inconclusive: -2.96% |  |
| CC(C)OC(=O)c1cccc(C(=O)Nc2cccc(NC(=O)c3cccc(C(=O)OC(C)C)n3)n2)n1 | inconclusive: 7.42% |  |
| O=C(N/N=C/c1ccc(OC(=O)c2ccccc2)cc1)c1cccnc1 | inactive: -4.36% |  |
| CCN(CC(=O)NCc1cccs1)C(=O)c1ccc(C)o1 | inactive: 4.52% |  |
| Cc1c(N2C(=O)/C(=C/c3ccccc3)SC2=S)c(=O)n(-c2ccccc2)n1C | inactive: -15% |  |
| COC(=O)C1=C(C)NC(C)=C(C(=O)OC)C1C(=O)OCC(=O)N1c2ccccc2CC1C (centres undefined) | inconclusive: 2.02% |  |
| Cc1ccc(Nc2nc(C)cc(C)c2C(N)=O)c(C)c1 | inactive: -8.81% |  |
| COc1cc(NC(=O)CCCNC(=O)c2ccc(Cl)cc2)cc(OC)c1 | inconclusive: 4.75% |  |
| CCc1ccccc1Nc1ncnc2c1cnn2-c1ccc(Cl)cc1 | inconclusive: -19.1% |  |
| C=CCc1ccc(OCCCOc2ccc(C)c(C)c2)c(OC)c1 | inconclusive: 21.4% |  |
| OC(CNCCc1ccc(C(F)(F)F)cc1)COc1ccc2ccccc2c1 (centres undefined) | inconclusive: -0.706% |  |

As entered above:
Value for O=C(O)c1ccc(COc2ccccc2Cl)cc1 under Potency: inconclusive: 20 µM [falling, partial curve, poor fit]
Value for CC1CCC(C(C)C)C(OC(=O)Cn2c(-c3ccc(Cl)cc3)[n+](C)c3ccccc32)C1 (centres undefined) under activity change, negative = inhibition: inconclusive: 3.02%
Value for O=C(CSc1ccc(-c2ccc(F)cc2)nn1)NCCc1ccccc1 under activity change, negative = inhibition: inactive: 3.56%
Value for COC(=O)C1=C(C)NC(C)=C(C(=O)OC)C1C(=O)OCC(=O)N1c2ccccc2CC1C (centres undefined) under activity change, negative = inhibition: inconclusive: 2.02%
Value for C=CCc1ccc(OCCCOc2ccc(C)c(C)c2)c(OC)c1 under activity change, negative = inhibition: inconclusive: 21.4%

More results:

| Structure (SMILES) | activity change, negative = inhibition | Potency |
| --- | --- | --- |
| C/C(CCc1ccco1)=N\NC(=O)CNc1cccc2ccccc12 |  | inconclusive: 35.5 µM [falling, single point] |
| Cc1cc2c(cc(C(=O)OCC(=O)NCc3cccs3)n2C(C)C)o1 |  | active: 8.2 µM |
| Cc1ccc(C)n1-c1cccc(C(=O)Nc2ccccc2)c1 | inactive: -12.6% |  |
| COC(=O)[C@H](CC(C)C)NC(=O)c1cc2c(cn1)[nH]c1ccccc12 | inconclusive: -19.9% |  |
| Fc1cccc(Nc2ncnc3sccc23)c1 | inactive: -3.03% |  |
| CNC(=O)C1CCN(Cc2cc3ccccc3n2Cc2cccc(C)c2)CC1 |  | inconclusive: 7.94 µM [falling, partial curve, poor fit] |
| Cc1ccc(-n2c(-c3cccc(C)c3)n[nH]c2=S)cc1 | inconclusive: 0.409% |  |
| O=C(Nc1ccc(O)cc1)/C(=C\C=C\c1ccccc1)NC(=O)c1ccccc1 |  | inconclusive: 12.6 µM [falling, partial curve, poor fit] |
| O=S(=O)(c1cnc(Cl)c(Br)c1)N1CCCCCC1 | inconclusive: -0.758% |  |
| Cc1cc(C)n2nc(SCc3ccccc3F)nc2n1 | inconclusive: 0.174% |  |
| CCCCNS(=O)(=O)c1cc(-c2nn(C)c(=O)c3ccccc23)ccc1C |  | inconclusive: 15.8 µM [falling, partial curve, poor fit] |
| CCc1ccc(-c2cc(C)no2)cc1S(=O)(=O)Nc1ccc(C)cn1 | inactive: -13.1% |  |
| CC(=O)Nc1cccn(Cc2c(Cl)cccc2Cl)c1=O | inconclusive: -1.3% |  |
| COCCN1C(=O)C(CC(=O)Nc2ccccc2)SC1=Nc1ccc(OC)cc1 (centres undefined) | inconclusive: 8.77% |  |
| Cc1cccc(NC(=S)NNC(=O)c2csc3c2CCCC3)c1 | inactive: -3.1% |  |
| O=C(CCNS(=O)(=O)c1cccc2nsnc12)N1CC(=O)N(CCc2ccccc2)C(=O)C1 | inconclusive: 4.7% |  |
| CCOc1ccc2nc(SCC(=O)N3c4ccccc4Sc4ccccc43)c(C#N)cc2c1 | inactive: 2.36% |  |
| COc1ccccc1OCC(=O)NCCc1nc2ccccc2[nH]1 | inconclusive: 0.903% |  |
| Cc1ccccc1OCC(=O)Nc1cccc(C(=O)O)c1 |  | inconclusive: 4.47 µM [falling, single point] |
| Cc1ccc2nsnc2c1NC(=S)NC(=O)c1ccco1 | inconclusive: -0.26% |  |
| COc1cccc(C(=O)Nc2ccc(-n3nncc3C(C)(C)C)cc2)c1 | inconclusive: 15.2% |  |
| CCc1noc(C)c1C(=O)Nc1nnc(CC(C)C)s1 |  | inconclusive: 29.1 µM [falling, single point] |
| CCCN1CCN(CCCNC(=O)CN2C(=O)c3cccnc3Oc3ccc(C)cc32)CC1 | inconclusive: 5.83% |  |
| Cc1cc2nccc(-c3ccccn3)n2n1 | inconclusive: 10.9% |  |
| Cc1cc(OCC(=O)Nc2ccc(S(=O)(=O)N3CCN(C)CC3)cc2)ccc1Br | inactive: -8.11% |  |
